{"source": "patent US10022342B2", "about": "“Methods and compositions for treating multiple myeloma” (Ohio State Innovation Foundation, priority 2015, dated 2018)", "system": "human miRNAs", "test": "NanoString global miRNA expression in MM.1S cells", "format": "cell-based", "conditions": "0.1 or 0.2 μM, 24 hours"}
{"smiles": "CC(C)[C@H](C(=O)Nc1ccc(C(=O)NO)cc1)c1ccccc1", "note": "[AR-42, (S)-N-hydroxy-4-(3-methyl-2-phenylbutanamido)benzamide]", "values": [{"measurement": "number of miRNAs differentially expressed", "result": 51}, {"measurement": "number of miRNAs significantly down-regulated", "result": 29}, {"measurement": "number of miRNAs up-regulated", "result": 22}]}
